Experimental data: PubChem BioAssay AID493246 (Drosophila RNAi Screening Center, 2011)
The deposit covers about 21,000 reagents; shown is an unselected part of those with a known target gene and a result. Of all reagents, 429 (2%) got an active call. 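Values are raw and not normalised between plates; calls rest on per-plate z-scores that were not deposited.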 A number with no mark means an inactive call. The numbers tell different reagents against one gene apart. A plus sign joins genes that one reagent is predicted to hit. No sequences are given here. Not given: the amount of reagent, the time to read-out.

Test: 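Identify essential fly genes by loss of cell viability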 (primary screen)
Cell system: Drosophila Kc and S2R+ cells
Knock-down reagent: long dsRNA against Drosophila genes
Read-out: 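Raw, unnormalised count of remaining cells in each well; per-plate z-scores of cell number underlie the calls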
Reading the numbers: Kc cell number and S2R+ cell number: higher = more cells remaining
Call rule: 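Counted as a hit if cell number falls by a z-score of at least 3 within its plate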

| target gene | reagent no. | Kc cell number, rep 1 | Kc cell number, rep 2 | S2R+ cell number, rep 1 | S2R+ cell number, rep 2 |
| --- | --- | --- | --- | --- | --- |
| CG18540 | 1 | 1.47e6 | 1.51e6 | 1.04e6 | 1.14e6 |
| snz | 1 | 1.47e6 | 1.48e6 | 1.07e6 | 1.11e6 |
| exex | 1 | 1.42e6 | 1.43e6 | 1.17e6 | 1.24e6 |
| Fbw5 | 1 | 1.53e6 | 1.49e6 | 1.10e6 | 1.28e6 |
| lace | 1 | 1.61e6 | 1.65e6 | 1.41e6 | 1.33e6 |
| CG13870 | 1 | 1.64e6 | 1.64e6 | 1.14e6 | 1.64e6 |
| tut | 1 | 1.44e6 | 1.50e6 | 1.17e6 | 1.33e6 |
| RpLP0 | 1 | 1.61e6 | 1.67e6 | 9.02e5 | 1.03e6 |
| CG31288 | 1 | 1.43e6 | 1.49e6 | 1.08e6 | 1.17e6 |
| Atf3 | 1 | 1.32e6 (active) | 1.51e6 | 6.83e5 | 7.66e5 |
| cathD | 1 | 1.58e6 | 1.64e6 | 1.27e6 | 1.36e6 |
| alpha-Est10 | 1 | 1.51e6 | 1.67e6 | 1.16e6 | 1.23e6 |
| stas | 1 | 1.76e6 | 1.74e6 | 1.10e6 | 1.19e6 |
| Rrp6 | 1 | 1.17e6 | 1.25e6 | 7.77e5 | 8.98e5 |
| Arpc2 | 1 | 1.36e6 | 1.46e6 | 1.36e6 | 1.40e6 |
| wam | 1 | 1.58e6 | 1.53e6 | 1.04e6 | 1.12e6 |
| CG13332 | 1 | 1.88e6 | 1.90e6 | 1.23e6 | 1.44e6 |
| Gr64d + Gr64e | 1 | 1.38e6 | 1.44e6 | 1.04e6 | 1.20e6 |
| Taf13 | 1 | 1.47e6 | 1.54e6 | 1.22e6 | 2.75e5 |
| TfIIEbeta | 1 | 1.55e6 | 1.44e6 | 1.13e6 | 1.33e6 |
| Pur-alpha | 1 | 5.65e5 | – | 8.14e5 | – |
| CG7379 | 1 | 1.57e6 | 1.64e6 | 1.13e6 | 1.25e6 |
| CG40948 (retired record) | 1 | 1.42e6 | 1.78e6 | 1.23e6 | 1.20e6 |
| CG1143 | 1 | 1.61e6 | 1.43e6 | 8.25e5 | 1.07e6 |
| Ranbp21 | 1 | 1.44e6 | 1.52e6 | 1.04e6 | 1.13e6 |
| CG18754 | 1 | 1.66e6 | 1.80e6 | 9.76e5 | 1.17e6 |
| Itgbn | 1 | 1.69e6 | 1.97e6 | 1.48e6 | 5.58e5 |
| CG32107 | 1 | 1.43e6 | 1.38e6 | 1.11e6 | 1.17e6 |
| Rev1 | 1 | 1.45e6 | 1.51e6 | 1.27e6 | 1.18e6 |
| CG17104 | 1 | 1.16e6 | 1.22e6 | 9.32e5 | 8.06e5 |
| CG14185 | 1 | 1.51e6 | 1.66e6 | 1.38e6 | 1.39e6 |
| CG4661 | 1 | 1.58e6 | 1.56e6 | 9.82e5 | 1.15e6 |
| tefu | 1 | 1.42e6 | 1.49e6 | 9.38e5 | 1.12e6 |
| Cpr62Bb | 1 | 1.50e6 | 1.37e6 | 1.15e6 | 1.31e6 |
| Pax | 1 | 1.47e6 | 1.53e6 | 9.67e5 | 1.12e6 |
| Pax | 2 | 1.58e6 | 1.75e6 | 1.52e6 | 1.41e6 |
| Pax | 3 | 1.59e6 | 1.67e6 | 1.27e6 | 3.65e5 |
| Arv1 | 1 | 1.42e6 | 1.52e6 | 1.15e6 | 1.31e6 |
| Dgat2 | 1 | 1.46e6 | 1.53e6 | 9.76e5 | 1.02e6 |
| nompC | 1 | 1.52e6 | 1.76e6 | 1.06e6 | 1.24e6 |

Hits, of those listed so far:
| target gene | reagent no. | Kc cell number, rep 1 | Kc cell number, rep 2 | S2R+ cell number, rep 1 | S2R+ cell number, rep 2 |
| --- | --- | --- | --- | --- | --- |
| Atf3 | 1 | 1.32e6 (active) | 1.51e6 | 6.83e5 | 7.66e5 |

The results go on.
| target gene | reagent no. | Kc cell number, rep 1 | Kc cell number, rep 2 | S2R+ cell number, rep 1 | S2R+ cell number, rep 2 |
| --- | --- | --- | --- | --- | --- |
| ND-19 | 1 | 1.68e6 | 1.71e6 | 1.23e6 | 1.39e6 |
| htk | 1 | 1.57e6 | 1.56e6 | 9.33e5 | 1.07e6 |
| htk | 2 | 1.61e6 | 1.71e6 | 1.05e6 | 1.25e6 |
| CG8564 | 1 | 1.36e6 | 1.44e6 | 1.24e6 | 1.21e6 |
| CG32536 + CG32537 | 1 | 1.37e6 | 1.33e6 | 9.83e5 | 1.19e6 |
| gsb-n | 1 | 1.59e6 | 1.71e6 | 9.61e5 | 1.11e6 |
| gsb-n | 2 | 1.55e6 | 1.58e6 | 1.24e6 | 1.45e6 |
| msn | 1 | 1.40e6 | 1.38e6 | 9.39e5 | 1.08e6 |
| msn | 2 | 1.40e6 | 1.37e6 | 1.04e6 | 1.20e6 |
| Ced-12 | 1 | 1.63e6 | 1.67e6 | 1.27e6 | 1.45e6 |
| CG1542 | 1 | 4.11e5 | – | 6.94e5 | – |
| CG9072 | 1 | 1.53e6 | 1.51e6 | 1.12e6 | 1.24e6 |
| IntS6 | 1 | 6.23e5 | – | 8.11e5 | – |
| CG2224 | 1 | 1.51e6 | 1.53e6 | 9.74e5 | 1.10e6 |
| CG12112 | 1 | 5.92e5 | – | 8.77e5 | – |
| CG13857 | 1 | 1.23e6 | 1.27e6 | 1.13e6 | 1.29e6 |
| Mos | 1 | 1.74e6 | 1.79e6 | 1.40e6 | 1.58e6 |
| CG16904 | 1 | 1.58e6 | 1.71e6 | 1.47e6 | 1.47e6 |
| CG7215 + Prx5 | 1 | 1.61e6 | 1.54e6 | 1.10e6 | 1.19e6 |
| CG7215 + Prx5 | 2 | 1.78e6 | 1.70e6 | 1.37e6 | 1.36e6 |
